According to paper PMC4266670:
Results are given in words; binding and its absence hold for the method and conditions named. Some binding calls cover weakened binding; strength is not graded here.

By UniProt entry, the sequences of proteins in these tests, tags left out. Residues count along the entry.
UniProt Q92743, residues 23-480: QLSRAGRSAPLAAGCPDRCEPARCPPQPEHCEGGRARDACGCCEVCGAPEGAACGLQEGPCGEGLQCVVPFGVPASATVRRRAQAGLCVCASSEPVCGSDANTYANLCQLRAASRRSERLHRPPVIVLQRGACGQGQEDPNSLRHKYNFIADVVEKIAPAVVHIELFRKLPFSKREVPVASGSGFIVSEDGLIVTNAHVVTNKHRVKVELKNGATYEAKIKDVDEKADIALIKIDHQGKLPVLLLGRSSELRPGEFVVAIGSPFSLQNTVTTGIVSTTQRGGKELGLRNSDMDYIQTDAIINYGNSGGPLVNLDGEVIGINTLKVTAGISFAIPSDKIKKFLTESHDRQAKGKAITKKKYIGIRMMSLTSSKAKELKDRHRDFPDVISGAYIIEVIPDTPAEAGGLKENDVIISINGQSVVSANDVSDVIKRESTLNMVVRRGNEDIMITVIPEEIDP

Assays:
[1] = target: HA-HtrA1-V5/6xHis (human HtrA1 with an N-terminal HA epitope and C-terminal V5/6xHis epitopes) (human) (UniProt Q92743); assay: Ni-NTA capture, then SDS-PAGE with immunoblot; serum-free HEK-HtrA1 conditioned medium, captured via the hexa-His tag on Ni-NTA columns
[2] = target: HA-HtrA1-V5/6xHis (human HtrA1 with an N-terminal HA epitope and C-terminal V5/6xHis epitopes) (human) (UniProt Q92743); assay: Ni-NTA capture, then SDS-PAGE with immunoblot; serum rich (10%) HEK-HtrA1 conditioned medium, captured via the hexa-His tag on Ni-NTA columns
[3] = target: HA-HtrA1-V5/6xHis (human HtrA1 with an N-terminal HA epitope and C-terminal V5/6xHis epitopes) (human) (UniProt Q92743); assay: non-reducing SDS-PAGE with immunoblot; conditioned medium of HeLa cells (10% or 0.2% FBS, 24-72 h) or of HEK-HtrA1 cells, no beta-mercaptoethanol; complexes greatly reduced with beta-mercaptoethanol; more complexes after 1 h at 37 C with the hit compounds or MPPs
[4] = target: High temperature requirement protein A1 (HtrA1), endogenous, from HeLa cells (human (endogenous in HeLa)) (UniProt Q92743); assay: native gel or EMSA; native PAGE of serum rich and low serum HeLa conditioned medium, probed with monoclonal anti-HtrA1

Substance | binding [1] | binding [2] | binding [3] | binding [4]
HA-HtrA1-V5/6xHis (human HtrA1 with an N-terminal HA epitope and C-terminal V5/6xHis epitopes) (from UniProt Q92743 23-480) (enzyme) | no binding (condition: serum-free culture) | binds | binds | 
High temperature requirement protein A1 (HtrA1), endogenous, from HeLa cells (from UniProt Q92743 23-480) (enzyme) |  |  |  | binds
